Values of other authors, collected in patent publication US5863950A, “HIV protease inhibitors” (Agouron Pharmaceuticals, Inc., priority 1994, dated 1999).
At least one structure is not confirmed: it was looked up by name or label, or the drawing left a doubt.

System: HIV virus
Conditions: cited from earlier work

Structure (SMILES): Cc1cn([C@H]2C[C@H](N=[N+]=[N-])[C@@H](CO)O2)c(=O)[nH]c1=O [azidothymidine]
- inhibiting the reverse transcription of the retroviral genome of the HIV virus: effective
